Test results reported in doi:10.1101/2023.02.03.526966.
Results are given in words; binding and its absence hold for the method and conditions named. In cells and extracts the contact can be indirect. Some results given as binding are weak or reduced against the parent protein; the word gives no strength. Sequences can lack the tags named with a protein.

T1: mouse nidogen-2 (mouse) (UniProt O88322)
T1 sequence: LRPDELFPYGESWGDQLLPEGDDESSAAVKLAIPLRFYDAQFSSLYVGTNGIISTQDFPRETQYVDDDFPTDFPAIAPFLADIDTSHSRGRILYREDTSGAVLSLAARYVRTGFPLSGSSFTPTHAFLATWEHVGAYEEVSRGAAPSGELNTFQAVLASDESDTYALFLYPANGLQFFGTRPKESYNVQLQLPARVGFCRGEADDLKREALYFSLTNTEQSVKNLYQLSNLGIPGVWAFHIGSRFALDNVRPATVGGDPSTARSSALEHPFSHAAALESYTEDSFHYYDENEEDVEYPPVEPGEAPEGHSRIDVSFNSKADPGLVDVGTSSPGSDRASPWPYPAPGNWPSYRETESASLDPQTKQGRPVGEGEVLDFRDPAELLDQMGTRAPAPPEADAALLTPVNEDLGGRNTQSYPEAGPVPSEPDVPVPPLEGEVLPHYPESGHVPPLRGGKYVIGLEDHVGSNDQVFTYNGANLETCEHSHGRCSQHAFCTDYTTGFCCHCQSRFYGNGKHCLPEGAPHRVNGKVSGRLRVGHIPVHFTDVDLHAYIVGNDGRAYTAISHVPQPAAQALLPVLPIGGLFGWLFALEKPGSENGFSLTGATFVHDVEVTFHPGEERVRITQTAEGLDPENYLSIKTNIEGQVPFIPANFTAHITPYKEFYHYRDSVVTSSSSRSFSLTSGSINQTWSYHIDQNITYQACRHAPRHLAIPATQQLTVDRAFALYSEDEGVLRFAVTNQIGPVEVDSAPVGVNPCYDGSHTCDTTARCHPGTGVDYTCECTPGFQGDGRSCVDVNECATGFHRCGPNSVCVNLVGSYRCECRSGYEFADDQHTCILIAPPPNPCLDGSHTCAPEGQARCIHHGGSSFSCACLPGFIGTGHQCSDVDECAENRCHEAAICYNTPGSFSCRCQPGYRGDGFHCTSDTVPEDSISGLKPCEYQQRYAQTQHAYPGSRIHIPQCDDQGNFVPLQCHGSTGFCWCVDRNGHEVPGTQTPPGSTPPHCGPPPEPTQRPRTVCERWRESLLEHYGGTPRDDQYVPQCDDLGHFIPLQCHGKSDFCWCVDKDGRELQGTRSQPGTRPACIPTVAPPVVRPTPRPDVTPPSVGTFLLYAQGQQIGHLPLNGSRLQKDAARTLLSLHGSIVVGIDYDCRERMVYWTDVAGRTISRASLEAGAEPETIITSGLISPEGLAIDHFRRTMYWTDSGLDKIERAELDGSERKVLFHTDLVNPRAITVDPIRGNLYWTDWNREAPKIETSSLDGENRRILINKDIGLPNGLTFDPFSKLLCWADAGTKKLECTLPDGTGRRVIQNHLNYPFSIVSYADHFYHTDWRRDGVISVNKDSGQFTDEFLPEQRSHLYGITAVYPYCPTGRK

T2: mouse nidogen-1 (mouse) (UniProt P10493)
T2 sequence: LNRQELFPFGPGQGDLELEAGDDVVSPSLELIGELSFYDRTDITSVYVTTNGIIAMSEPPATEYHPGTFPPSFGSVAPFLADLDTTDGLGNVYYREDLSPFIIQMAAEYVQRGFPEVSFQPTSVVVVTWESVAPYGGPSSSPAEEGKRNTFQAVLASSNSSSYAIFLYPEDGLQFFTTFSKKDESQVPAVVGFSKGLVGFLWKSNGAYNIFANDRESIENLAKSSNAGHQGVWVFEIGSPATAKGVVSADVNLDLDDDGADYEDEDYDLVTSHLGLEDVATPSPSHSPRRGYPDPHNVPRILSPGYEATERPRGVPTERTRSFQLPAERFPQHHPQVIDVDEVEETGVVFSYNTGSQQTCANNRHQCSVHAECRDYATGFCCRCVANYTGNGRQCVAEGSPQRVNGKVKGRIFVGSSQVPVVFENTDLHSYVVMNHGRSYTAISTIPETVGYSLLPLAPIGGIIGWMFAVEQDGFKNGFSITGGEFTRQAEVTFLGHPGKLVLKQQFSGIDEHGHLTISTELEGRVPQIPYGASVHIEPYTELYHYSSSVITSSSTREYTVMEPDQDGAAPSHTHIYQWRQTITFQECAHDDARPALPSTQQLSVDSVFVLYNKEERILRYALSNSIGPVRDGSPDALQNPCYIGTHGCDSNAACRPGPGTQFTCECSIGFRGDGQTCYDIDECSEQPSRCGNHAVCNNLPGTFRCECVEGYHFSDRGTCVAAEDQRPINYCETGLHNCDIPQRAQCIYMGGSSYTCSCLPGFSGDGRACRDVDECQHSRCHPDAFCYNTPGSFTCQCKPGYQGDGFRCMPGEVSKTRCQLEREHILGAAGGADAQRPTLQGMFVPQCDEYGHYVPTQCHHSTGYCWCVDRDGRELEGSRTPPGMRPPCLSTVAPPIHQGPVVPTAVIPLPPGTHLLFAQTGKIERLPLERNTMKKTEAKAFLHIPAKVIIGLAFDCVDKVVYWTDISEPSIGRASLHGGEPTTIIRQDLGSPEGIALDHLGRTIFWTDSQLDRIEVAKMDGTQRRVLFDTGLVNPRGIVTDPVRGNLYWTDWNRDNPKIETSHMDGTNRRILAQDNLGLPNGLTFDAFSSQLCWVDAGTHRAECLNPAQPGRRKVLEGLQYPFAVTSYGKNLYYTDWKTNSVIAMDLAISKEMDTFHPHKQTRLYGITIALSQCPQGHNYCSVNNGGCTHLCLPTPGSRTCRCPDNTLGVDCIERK

B1: HA-ePTPRσ-Myc (extracellular domain of human PTPRσ fused to the PDGF receptor transmembrane domain) (domain or fragment, UniProt Q13332 30-1282)
chain: EEPPRFIKEPKDQIGVSGGVASFVCQATGDPKPRVTWNKKGKKVNSQRFETIEFDESAGAVLRIQPLRTPRDENVYECVAQNSVGEITVHAKLTVLREDQLPSGFPNIDMGPQLKVVERTRTATMLCAASGNPDPEITWFKDFLPVDPSASNGRIKQLRSETFESTPIRGALQIESSEETDQGKYECVATNSAGVRYSSPANLYVRELREVRRVAPRFSILPMSHEIMPGGNVNITCVAVGSPMPYVKWMQGAEDLTPEDDMPVGRNVLELTDVKDSANYTCVAMSSLGVIEAVAQITVKSLPKAPGTPMVTENTATSITITWDSGNPDPVSYYVIEYKSKSQDGPYQIKEDITTTRYSIGGLSPNSEYEIWVSAVNSIGQGPPSESVVTRTGEQAPASAPRNVQARMLSATTMIVQWEEPVEPNGLIRGYRVYYTMEPEHPVGNWQKHNVDDSLLTTVGSLLEDETYTVRVLAFTSVGDGPLSDPIQVKTQQGVPGQPMNLRAEARSETSITLSWSPPRQESIIKYELLFREGDHGREVGRTFDPTTSYVVEDLKPNTEYAFRLAARSPQGLGAFTPVVRQRTLQSKPSAPPQDVKCVSVRSTAILVSWRPPPPETHNGALVGYSVRYRPLGSEDPEPKEVNGIPPTTTQILLEALEKWTQYRITTVAHTEVGPGPESSPVVVRTDEDVPSAPPRKVEAEALNATAIRVLWRSPAPGRQHGQIRGYQVHYVRMEGAEARGPPRIKDVMLADAQWETDDTAEYEMVITNLQPETAYSITVAAYTMKGDGARSKPKVVVTKGAVLGRPTLSVQQTPEGSLLARWEPPAGTAEDQVLGYRLQFGREDSTPLATLEFPPSEDRYTASGVHKGATYVFRLAARSRGGLGEEAAEVLSIPEDTPRGHPQILEAAGNASAGTVLLRWLPPVPAERNGAIVKYTVAVREAGALGPARETELPAAAEPGAENALTLQGLKPDTAYDLQVRAHTRRGPGPFSPPVRYRTFLRDQVSPKNFKVKMIMKTSVLLSWEFPDNYNSPTPYKIQYNGLTLDVDGRTTKKLITHLKPHTFYNFVLTNRGSSLGGLQQTVTAWTAFNLLNGKPSVAPKPDADGFIMVYLPDGQSPVPVQSYFIVMVPLRKSRGGQFLTPLGSPEDMDLEELIQDISRLQRRSLRHSRQLEVPRPYIAARFSVLPPTFHPGDQKQYGGFDNRGLEPGHRYVLFVLAVLQKSEPTFAASPFSDPFQLDNPDPQPIVDGEEG
B2: HA-ePTPRδ-Myc (extracellular domain of human PTPRδ fused to the PDGF receptor transmembrane domain) (domain or fragment, UniProt P23468 21-1265)
chain: ETPPRFTRTPVDQTGVSGGVASFICQATGDPRPKIVWNKKGKKVSNQRFEVIEFDDGSGSVLRIQPLRTPRDEAIYECVASNNVGEISVSTRLTVLREDQIPRGFPTIDMGPQLKVVERTRTATMLCAASGNPDPEITWFKDFLPVDTSNNNGRIKQLRSESIGGTPIRGALQIEQSEESDQGKYECVATNSAGTRYSAPANLYVRELREVRRVPPRFSIPPTNHEIMPGGSVNITCVAVGSPMPYVKWMLGAEDLTPEDDMPIGRNVLELNDVRQSANYTCVAMSTLGVIEAIAQITVKALPKPPGTPVVTESTATSITLTWDSGNPEPVSYYIIQHKPKNSEELYKEIDGVATTRYSVAGLSPYSDYEFRVVAVNNIGRGPPSEPVLTQTSEQAPSSAPRDVQARMLSSTTILVQWKEPEEPNGQIQGYRVYYTMDPTQHVNNWMKHNVADSQITTIGNLVPQKTYSVKVLAFTSIGDGPLSSDIQVITQTGVPGQPLNFKAEPESETSILLSWTPPRSDTIANYELVYKDGEHGEEQRITIEPGTSYRLQGLKPNSLYYFRLAARSPQGLGASTAEISARTMQSKPSAPPQDISCTSPSSTSILVSWQPPPVEKQNGIITEYSIKYTAVDGEDDKPHEILGIPSDTTKYLLEQLEKWTEYRITVTAHTDVGPGPESLSVLIRTNEDVPSGPPRKVEVEAVNSTSVKVSWRSPVPNKQHGQIRGYQVHYVRMENGEPKGQPMLKDVMLADAQWEFDDTTEHDMIISGLQPETSYSLTVTAYTTKGDGARSKPKLVSTTGAVPGKPRLVINHTQMNTALIQWHPPVDTFGPLQGYRLKFGRKDMEPLTTLEFSEKEDHFTATDIHKGASYVFRLSARNKVGFGEEMVKEISIPEEVPTGFPQNLHSEGTTSTSVQLSWQPPVLAERNGIITKYTLLYRDINIPLLPMEQLIVPADTTMTLTGLKPDTTYDVKVRAHTSKGPGPYSPSVQFRTLPVDQVFAKNFHVKAVMKTSVLLSWEIPENYNSAMPFKILYDDGKMVEEVDGRATQKLIVNLKPEKSYSFVLTNRGNSAGGLQHRVTAKTAPDVLRTKPAFIGKTNLDGMITVQLPEVPANENIKGYYIIIVPLKKSRGKFIKPWESPDEMELDELLKEISRKRRSIRYGREVELKPYIAAHFDVLPTEFTLGDDKHYGGFTNKQLQSGQEYVFFVLAVMEHAESKMYATSPYSDPVVSMDLDPQPITDEEE

Assays:
[1] = target: T1, mouse nidogen-2 (mouse); assay: co-IP
[2] = target: T2, mouse nidogen-1 (mouse); assay: co-IP

Binder | binding [1] | binding [2]
B1 | no binding | no binding
B2 | binds | binds
